Measurements published in patent publication US6413764B1, “Human metabotropic glutamate receptors, nucleic acids encoding same and uses thereof” (Merck & Co., Inc., priority 1993, dated 2002).
At least one compound was matched to its structure with a doubt left.

Sequences of proteins named here, by UniProt entry; tags and fusion partners are left off. Residues count along the entry.
UniProt P41594, 21-1180 isoform P41594-2 limits assumed: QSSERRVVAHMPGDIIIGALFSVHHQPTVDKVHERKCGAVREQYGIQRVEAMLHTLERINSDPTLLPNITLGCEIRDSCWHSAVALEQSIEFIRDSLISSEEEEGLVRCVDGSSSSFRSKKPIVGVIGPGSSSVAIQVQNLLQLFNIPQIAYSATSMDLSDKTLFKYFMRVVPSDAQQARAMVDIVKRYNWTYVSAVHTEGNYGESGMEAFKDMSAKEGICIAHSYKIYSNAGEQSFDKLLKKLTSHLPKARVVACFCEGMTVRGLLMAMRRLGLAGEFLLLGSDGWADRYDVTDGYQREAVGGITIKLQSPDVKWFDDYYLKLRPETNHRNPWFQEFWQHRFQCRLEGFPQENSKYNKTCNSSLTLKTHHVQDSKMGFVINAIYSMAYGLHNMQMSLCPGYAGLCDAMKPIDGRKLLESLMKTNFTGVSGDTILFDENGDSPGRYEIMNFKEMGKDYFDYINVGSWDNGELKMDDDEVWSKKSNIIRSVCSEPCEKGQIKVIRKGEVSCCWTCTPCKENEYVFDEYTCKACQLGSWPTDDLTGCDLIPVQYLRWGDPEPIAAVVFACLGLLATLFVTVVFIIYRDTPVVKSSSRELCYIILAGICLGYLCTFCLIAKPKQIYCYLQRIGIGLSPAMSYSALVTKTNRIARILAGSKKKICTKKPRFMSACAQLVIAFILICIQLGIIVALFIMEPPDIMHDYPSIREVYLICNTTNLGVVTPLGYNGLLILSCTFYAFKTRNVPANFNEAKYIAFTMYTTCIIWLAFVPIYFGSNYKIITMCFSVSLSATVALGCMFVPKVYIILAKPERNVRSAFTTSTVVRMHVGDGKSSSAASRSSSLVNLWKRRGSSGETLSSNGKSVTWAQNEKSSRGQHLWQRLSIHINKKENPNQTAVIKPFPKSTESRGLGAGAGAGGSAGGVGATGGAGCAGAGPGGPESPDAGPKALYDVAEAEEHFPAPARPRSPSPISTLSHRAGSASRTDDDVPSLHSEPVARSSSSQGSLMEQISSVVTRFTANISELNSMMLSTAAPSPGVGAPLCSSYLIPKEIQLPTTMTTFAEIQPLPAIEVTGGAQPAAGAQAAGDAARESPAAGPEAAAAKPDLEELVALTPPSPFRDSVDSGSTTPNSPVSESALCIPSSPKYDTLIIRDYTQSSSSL

Legend:
human mGluR5a receptor = human mGluR5a receptor (Homo sapiens, UniProt P41594); assay: Automated fluorescence assay (fluo-3) in transiently transfected HEK 293 cells; assay type: cell-based; parameters: expressed in transfected cells; host or cells: HEK 293 cells, transient CaPO4 transfection; conditions: MMTV-hmGluR5a + pRShGR; dexamethasone (~1 M) 16 hrs at 37° C. before assay
Procedure: HEK 293 cells were transiently transfected with DNA encoding mGluR5a (constructs mGluR5a2 and mGluR5a3 and construct MMTV-hmGluR5a) receptors. Approximately 2×10^6 HEK cells were transiently transfected with 5-18 μg (or 0.18 μg in some transfections, see Example 3.C.2.) of the indicated plasmid according to standard CaPO4 transfection procedures [see Wigler et al. (1979) Proc. Natl. Acad. Sci. USA 76:1373-1376]. In addition, 0.5-2 μg (or 0.18 μg in some transfections, see Example 3.C.2) of plasmid pCMVβgal (Clontech Laboratories, Palo Alto, Calif.), which contains the Escherichia coli β-galactosidase gene fused to the CMV promoter, were co-transfected as a reporter gene for monitoring the efficiency of transfection. The transfectants were analyzed for β-galactosidase expression by direct staining of the product of a reaction involving β-galactosidase and the X-gal substrate [Jones (1986) EMBO 5:3133-3142]. Transfectants can also be analyzed for β-galactosidase expression by measurement of β-galactosidase activity [Miller (1972) in Experiments in Molecular Genetics, pp.352-355, Cold Spring Harbor Press].
HEK 293 cells that were transiently transfected with 5 μg of MMTV-hmGluR5A were co-transfected with 5 μg of pRShGR (ATCC accession no. 67200) which contains DNA encoding a glucocorticoid receptor operatively linked to the Rous Sarcoma virus (RSV) LTR promoter. […]

[1] = system: olfactory cyclic nucleotide-gated channel; assay: Single-cell video imaging of [Ca++]i in HEK293 cells transfected with pCMV-OCNA; assay type: cell-based; conditions: 100 μM forskolin; averaged results from 64 cells and individual cells
Procedure: The transfectants were also analyzed by single-cell video imaging of internal calcium levels ([Ca^++]i). This method allows analysis of cyclic nucleotide-gated channel activity by measurement of intracellular calcium levels, which change with the amount of calcium influx through the channel, as regulated by cyclic nucleotide activation of the channel. The imaging assay was conducted essentially as described in Example 3.C.1.b., with some modifications. After dye loading, the cells were examined using a Zeiss Axiovert microscope and 100 W mercury lamp, a Dage intensified CCD camera, and Image-1 hardware and software for image processing. The software controlled the alternate excitation of the cells at 350 and 385 nm (typically every 5 seconds) through a 20×1.3 N.A. oil immersion objective. Light emitted at greater than 510 nm was collected by the CCD camera, digitized, and 350 and 385 nm excitation images were background-subtracted before calculating the 350/385 nm intensity ratio.
For quantitative analysis, the average 350/385 ratio value in a 12 by 12 pixel region over each cell was calculated by the software for each ratio image in an experiment and imported into a spreadsheet for further analysis and graphing. […]
In these experiments, the HEK293 cell transfectants were exposed to agents which increase intracellular cAMP levels and monitored for subsequent changes in [Ca^++]i. […]

C[C@@H]1C[C@H]2[C@@H]3CCC4=CC(=O)C=C[C@]4(C)[C@@]3(F)[C@@H](O)C[C@]2(C)[C@@]1(O)C(=O)CO [dexamethasone] was tested, and the “peak fluorescence response to 100 μM quisqualate after preincubation with dexamethasone” value (human mGluR5a receptor) was “greater”.

C=C[C@@]1(C)CC(=O)[C@]2(O)[C@@]3(C)[C@@H](O)CCC(C)(C)[C@@H]3[C@H](O)[C@H](OC(C)=O)[C@@]2(C)O1 [forskolin] was tested, and the “change in [Ca++]i” value [1] was “small increase”.
